Test results: the supplement of paper PMC10849652
The list shows a part of the results.

Chains of the proteins cited; added tags and fusions are not shown. Lines headed by an entry give the natural chain unless they say otherwise; changes in a name come on top.
UniProt Q8N5C7: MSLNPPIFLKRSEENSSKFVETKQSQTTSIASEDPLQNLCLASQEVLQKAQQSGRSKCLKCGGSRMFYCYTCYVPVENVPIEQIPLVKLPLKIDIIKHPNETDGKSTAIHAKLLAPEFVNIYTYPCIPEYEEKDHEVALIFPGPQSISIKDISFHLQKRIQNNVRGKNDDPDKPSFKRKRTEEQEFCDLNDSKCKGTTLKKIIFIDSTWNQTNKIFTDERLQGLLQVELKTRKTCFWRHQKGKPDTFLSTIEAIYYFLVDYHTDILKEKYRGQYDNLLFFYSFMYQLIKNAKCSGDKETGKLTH
UniProt Q99704: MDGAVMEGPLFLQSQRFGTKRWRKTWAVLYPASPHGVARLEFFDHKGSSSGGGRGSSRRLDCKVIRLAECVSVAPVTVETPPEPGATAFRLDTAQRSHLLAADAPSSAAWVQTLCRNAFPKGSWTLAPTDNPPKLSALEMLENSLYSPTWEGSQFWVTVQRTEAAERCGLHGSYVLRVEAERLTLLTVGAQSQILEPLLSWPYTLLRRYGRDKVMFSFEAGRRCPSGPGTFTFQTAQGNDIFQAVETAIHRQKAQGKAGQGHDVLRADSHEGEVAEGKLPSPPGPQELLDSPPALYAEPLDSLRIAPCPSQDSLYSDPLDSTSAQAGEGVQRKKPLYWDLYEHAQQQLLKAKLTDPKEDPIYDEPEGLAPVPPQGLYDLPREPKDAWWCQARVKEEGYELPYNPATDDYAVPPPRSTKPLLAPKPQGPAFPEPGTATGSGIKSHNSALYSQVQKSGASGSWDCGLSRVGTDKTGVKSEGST
UniProt P63167, whole entry, looked up: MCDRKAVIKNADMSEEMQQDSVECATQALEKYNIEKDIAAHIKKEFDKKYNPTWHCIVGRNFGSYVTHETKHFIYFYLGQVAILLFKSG
UniProt P60981: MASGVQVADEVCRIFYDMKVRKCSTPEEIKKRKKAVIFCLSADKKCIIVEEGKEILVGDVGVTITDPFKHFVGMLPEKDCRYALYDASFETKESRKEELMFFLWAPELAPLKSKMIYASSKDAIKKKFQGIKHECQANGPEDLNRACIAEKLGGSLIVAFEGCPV
UniProt Q6V1X1: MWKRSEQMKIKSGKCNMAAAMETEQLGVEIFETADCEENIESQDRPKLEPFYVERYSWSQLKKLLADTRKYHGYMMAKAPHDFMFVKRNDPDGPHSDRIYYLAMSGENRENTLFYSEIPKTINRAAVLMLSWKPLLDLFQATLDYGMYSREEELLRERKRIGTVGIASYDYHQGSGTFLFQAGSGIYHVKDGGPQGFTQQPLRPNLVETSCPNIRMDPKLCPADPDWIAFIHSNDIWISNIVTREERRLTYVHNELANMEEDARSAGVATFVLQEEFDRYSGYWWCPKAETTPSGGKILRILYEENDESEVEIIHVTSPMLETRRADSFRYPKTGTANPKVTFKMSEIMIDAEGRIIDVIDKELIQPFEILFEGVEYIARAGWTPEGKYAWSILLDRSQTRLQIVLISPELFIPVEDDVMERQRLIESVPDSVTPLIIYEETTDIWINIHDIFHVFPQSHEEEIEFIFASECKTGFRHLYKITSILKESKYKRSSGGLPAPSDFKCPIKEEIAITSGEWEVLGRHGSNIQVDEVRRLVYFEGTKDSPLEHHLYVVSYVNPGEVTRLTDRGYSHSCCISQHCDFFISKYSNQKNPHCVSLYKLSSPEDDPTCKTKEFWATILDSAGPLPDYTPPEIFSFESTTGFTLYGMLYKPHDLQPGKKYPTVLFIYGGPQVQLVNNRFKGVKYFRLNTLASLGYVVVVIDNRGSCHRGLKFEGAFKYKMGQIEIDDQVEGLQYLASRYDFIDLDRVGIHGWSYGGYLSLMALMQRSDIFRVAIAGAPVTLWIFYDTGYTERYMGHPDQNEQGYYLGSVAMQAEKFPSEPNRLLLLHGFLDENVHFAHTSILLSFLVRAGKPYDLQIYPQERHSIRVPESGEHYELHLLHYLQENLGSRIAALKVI
UniProt Q5VYK3, whole entry, looked up: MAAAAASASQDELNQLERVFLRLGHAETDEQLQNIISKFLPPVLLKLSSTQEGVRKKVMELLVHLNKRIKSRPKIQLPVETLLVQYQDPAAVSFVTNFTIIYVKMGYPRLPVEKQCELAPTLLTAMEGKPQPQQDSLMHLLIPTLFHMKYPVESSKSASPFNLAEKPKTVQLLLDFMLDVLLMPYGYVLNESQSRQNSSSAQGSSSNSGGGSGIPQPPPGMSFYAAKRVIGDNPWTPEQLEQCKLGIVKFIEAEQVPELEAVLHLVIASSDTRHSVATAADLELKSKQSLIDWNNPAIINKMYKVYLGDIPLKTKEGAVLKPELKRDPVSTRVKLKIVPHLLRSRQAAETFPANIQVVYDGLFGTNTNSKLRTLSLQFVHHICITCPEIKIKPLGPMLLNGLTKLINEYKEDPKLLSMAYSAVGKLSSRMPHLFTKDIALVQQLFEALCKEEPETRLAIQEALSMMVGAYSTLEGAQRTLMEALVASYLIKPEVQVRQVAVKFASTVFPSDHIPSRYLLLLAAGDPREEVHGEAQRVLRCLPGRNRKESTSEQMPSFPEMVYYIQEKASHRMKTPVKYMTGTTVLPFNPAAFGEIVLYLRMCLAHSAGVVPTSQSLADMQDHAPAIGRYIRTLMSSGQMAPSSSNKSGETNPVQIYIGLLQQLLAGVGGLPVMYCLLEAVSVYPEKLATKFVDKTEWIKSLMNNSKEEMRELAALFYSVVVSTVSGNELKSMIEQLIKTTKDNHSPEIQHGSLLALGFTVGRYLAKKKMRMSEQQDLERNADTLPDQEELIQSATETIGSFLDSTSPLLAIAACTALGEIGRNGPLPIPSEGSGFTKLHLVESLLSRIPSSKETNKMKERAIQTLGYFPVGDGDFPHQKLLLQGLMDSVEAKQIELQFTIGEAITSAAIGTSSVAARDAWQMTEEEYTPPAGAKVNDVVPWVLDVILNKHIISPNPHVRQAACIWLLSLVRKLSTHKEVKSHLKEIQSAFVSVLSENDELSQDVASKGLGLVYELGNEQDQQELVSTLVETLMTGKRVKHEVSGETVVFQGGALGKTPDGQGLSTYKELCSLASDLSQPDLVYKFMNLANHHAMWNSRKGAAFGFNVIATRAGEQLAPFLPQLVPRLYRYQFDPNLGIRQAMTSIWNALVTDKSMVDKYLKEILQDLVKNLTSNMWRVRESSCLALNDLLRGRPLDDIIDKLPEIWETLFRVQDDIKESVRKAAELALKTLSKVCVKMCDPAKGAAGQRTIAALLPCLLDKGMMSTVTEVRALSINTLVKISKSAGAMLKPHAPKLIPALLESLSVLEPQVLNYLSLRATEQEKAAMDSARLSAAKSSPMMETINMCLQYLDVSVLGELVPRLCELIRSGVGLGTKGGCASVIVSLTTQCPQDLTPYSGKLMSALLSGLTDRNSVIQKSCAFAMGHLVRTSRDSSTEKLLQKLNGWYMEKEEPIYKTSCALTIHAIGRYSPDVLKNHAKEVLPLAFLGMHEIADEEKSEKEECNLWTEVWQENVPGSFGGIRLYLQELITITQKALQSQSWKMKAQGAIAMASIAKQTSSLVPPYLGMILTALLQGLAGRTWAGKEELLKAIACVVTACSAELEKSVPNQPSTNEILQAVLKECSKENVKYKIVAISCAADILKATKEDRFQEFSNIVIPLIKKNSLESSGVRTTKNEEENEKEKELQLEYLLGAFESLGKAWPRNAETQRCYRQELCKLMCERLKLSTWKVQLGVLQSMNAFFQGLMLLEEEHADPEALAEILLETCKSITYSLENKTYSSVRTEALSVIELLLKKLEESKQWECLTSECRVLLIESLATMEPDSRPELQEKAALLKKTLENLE
UniProt Q9BU89: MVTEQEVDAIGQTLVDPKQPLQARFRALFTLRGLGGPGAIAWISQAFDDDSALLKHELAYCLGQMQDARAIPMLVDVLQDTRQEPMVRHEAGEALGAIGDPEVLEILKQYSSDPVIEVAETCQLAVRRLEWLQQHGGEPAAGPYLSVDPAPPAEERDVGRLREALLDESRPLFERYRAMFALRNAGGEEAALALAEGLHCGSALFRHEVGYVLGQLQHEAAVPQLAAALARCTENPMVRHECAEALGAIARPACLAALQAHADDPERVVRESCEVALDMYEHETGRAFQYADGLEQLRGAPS
UniProt Q9H410: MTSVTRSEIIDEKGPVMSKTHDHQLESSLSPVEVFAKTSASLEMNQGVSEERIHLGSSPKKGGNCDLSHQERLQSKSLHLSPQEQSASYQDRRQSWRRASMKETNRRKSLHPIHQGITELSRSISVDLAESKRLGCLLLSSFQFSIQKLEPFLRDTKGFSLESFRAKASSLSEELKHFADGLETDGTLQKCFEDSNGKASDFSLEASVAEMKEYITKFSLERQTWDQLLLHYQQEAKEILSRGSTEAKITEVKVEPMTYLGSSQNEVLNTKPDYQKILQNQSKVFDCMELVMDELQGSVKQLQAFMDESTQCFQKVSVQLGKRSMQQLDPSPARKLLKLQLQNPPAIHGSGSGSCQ
UniProt Q9P2X0: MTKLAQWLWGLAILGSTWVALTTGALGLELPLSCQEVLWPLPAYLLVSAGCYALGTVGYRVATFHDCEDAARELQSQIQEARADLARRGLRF
UniProt Q96DA6: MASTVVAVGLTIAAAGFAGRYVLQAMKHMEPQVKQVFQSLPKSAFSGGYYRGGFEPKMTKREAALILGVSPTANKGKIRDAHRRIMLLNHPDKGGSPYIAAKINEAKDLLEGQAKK
UniProt P42126: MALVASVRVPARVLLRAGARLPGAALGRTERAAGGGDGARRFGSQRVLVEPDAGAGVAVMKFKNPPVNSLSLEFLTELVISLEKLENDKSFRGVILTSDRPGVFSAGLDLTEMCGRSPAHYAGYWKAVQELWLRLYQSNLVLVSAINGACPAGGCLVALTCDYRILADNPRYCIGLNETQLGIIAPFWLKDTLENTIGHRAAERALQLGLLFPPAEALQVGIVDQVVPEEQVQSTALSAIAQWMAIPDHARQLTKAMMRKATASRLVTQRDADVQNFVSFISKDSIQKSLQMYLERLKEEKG
UniProt Q9NX74: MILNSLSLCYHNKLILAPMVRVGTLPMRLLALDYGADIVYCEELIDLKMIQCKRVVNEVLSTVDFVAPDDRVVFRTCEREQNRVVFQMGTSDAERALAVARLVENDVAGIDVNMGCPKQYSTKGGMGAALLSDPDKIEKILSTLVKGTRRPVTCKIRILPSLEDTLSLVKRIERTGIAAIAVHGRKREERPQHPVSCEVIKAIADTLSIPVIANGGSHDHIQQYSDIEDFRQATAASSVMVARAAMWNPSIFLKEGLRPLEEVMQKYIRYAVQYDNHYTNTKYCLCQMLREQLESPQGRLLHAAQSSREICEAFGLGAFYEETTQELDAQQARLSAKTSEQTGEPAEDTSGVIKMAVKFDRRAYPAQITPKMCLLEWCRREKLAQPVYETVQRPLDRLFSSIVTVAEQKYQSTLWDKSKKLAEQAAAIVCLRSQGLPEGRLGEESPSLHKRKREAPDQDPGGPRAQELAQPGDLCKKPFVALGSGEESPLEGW
UniProt Q9BVJ7: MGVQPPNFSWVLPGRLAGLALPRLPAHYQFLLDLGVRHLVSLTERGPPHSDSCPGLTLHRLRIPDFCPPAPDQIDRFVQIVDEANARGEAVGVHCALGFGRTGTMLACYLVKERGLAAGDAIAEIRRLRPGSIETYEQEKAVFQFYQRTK
UniProt Q9UNI6, whole entry, looked up: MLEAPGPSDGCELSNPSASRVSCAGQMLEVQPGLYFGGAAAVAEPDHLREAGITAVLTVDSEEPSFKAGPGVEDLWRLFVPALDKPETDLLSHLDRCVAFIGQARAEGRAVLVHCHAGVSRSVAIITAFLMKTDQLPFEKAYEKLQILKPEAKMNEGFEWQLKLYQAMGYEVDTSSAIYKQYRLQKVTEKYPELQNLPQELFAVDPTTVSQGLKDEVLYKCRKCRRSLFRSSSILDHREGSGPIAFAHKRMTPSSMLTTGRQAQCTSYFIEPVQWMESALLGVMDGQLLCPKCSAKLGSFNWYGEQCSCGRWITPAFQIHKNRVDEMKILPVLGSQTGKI
UniProt Q92785, whole entry, looked up: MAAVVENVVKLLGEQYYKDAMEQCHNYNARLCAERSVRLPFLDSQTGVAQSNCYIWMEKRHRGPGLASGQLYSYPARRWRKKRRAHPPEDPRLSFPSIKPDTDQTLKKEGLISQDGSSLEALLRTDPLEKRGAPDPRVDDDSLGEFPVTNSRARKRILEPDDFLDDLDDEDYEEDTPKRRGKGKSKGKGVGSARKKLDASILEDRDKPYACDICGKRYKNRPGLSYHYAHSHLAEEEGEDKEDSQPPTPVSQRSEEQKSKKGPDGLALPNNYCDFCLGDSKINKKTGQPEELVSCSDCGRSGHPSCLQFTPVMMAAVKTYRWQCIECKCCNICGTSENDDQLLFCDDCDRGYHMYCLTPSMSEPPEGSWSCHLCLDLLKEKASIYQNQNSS
UniProt Q15125: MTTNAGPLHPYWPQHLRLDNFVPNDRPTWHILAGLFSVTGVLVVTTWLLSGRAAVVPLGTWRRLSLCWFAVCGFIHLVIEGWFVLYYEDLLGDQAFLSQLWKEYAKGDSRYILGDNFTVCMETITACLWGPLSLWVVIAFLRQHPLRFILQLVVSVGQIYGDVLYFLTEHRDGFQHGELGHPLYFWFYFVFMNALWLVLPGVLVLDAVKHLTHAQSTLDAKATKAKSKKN

Experiments:
Experiment in all cases: log2 fold change, soluble protein after heating vs DMSO (PISA); higher = thermal stabilisation; K562 cells, 10 uM, 30 min; active = over 0.2 and 3.5 SD of the protein, either way, in both replicates (recomputed)
[1] = compound: COC1=CC=C(C=C1)CN2C=CC3=C2C=C(C=C3)C(=O)NO
In short: (§1)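 K562 cells at 2×10^6 cells/mL were exposed to 10 μM compound for 30 min, then aliquots were heated for 3 min across 48°C-58°C, pooled, and extracted in PBS containing 0.5% NP-40 at 4°C. The supernatant after 21,000xg for 90 min was taken as soluble protein and measured by TMTpro 16plex LC-MS/MS with channel sums equalised. Thermal stability is reported relative to control samples, with values from duplicates. Fold changes are given on a log2 scale.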

filanesib = compound: CON(C)C(=O)N1N=C(c2cc(F)ccc2F)S[C@@]1(CCCN)c1ccccc1 [filanesib]
In short: as §1

zotarolimus = compound: CO[C@H]1C[C@@H]2CC[C@@H](C)[C@@](O)(O2)C(=O)C(=O)N2CCCC[C@H]2C(=O)O[C@H]([C@H](C)C[C@@H]2CC[C@H](n3cnnn3)[C@H](OC)C2)CC(=O)[C@H](C)/C=C(\C)[C@@H](O)[C@@H](OC)C(=O)[C@H](C)C[C@H](C)/C=C/C=C/C=C/1C [zotarolimus]
In short: as §1

idasanutlin = compound: COc1cc(C(=O)O)ccc1NC(=O)[C@@H]1N[C@@H](CC(C)(C)C)[C@](C#N)(c2ccc(Cl)cc2F)[C@H]1c1cccc(Cl)c1F [idasanutlin]
In short: as §1

alisertib = compound: COc1cc(Nc2ncc3c(n2)-c2ccc(Cl)cc2C(c2c(F)cccc2OC)=NC3)ccc1C(=O)O [alisertib]
In short: as §1

[2] = compound: COc1cc2nc(-c3cc(F)ccc3O)nc(N[C@@H]3CNC[C@H]3C(C)(C)O)c2cc1OC
In short: as §1

gefitinib = compound: COc1cc2ncnc(Nc3ccc(F)c(Cl)c3)c2cc1OCCCN1CCOCC1 [gefitinib]
In short: as §1

[3] = compound: COc1cccc2cc(-c3nc([C@H]4CC[C@H](C(=O)O)CC4)n4ncnc(N)c34)[nH]c12
In short: as §1

lapatinib = compound: CS(=O)(=O)CCNCc1ccc(-c2ccc3ncnc(Nc4ccc(OCc5cccc(F)c5)c(Cl)c4)c3c2)o1 [lapatinib]
In short: as §1

pictilisib = compound: CS(=O)(=O)N1CCN(Cc2cc3nc(-c4cccc5[nH]ncc45)nc(N4CCOCC4)c3s2)CC1 [pictilisib]
In short: as §1

| Target | log2 fold change [1] | log2 fold change (filanesib) | log2 fold change (zotarolimus) | log2 fold change (idasanutlin) | log2 fold change (alisertib) | log2 fold change [2] | log2 fold change (gefitinib) | log2 fold change [3] | log2 fold change (lapatinib) | log2 fold change (pictilisib) |
| --- | --- | --- | --- | --- | --- | --- | --- | --- | --- | --- |
| DSG2 (UniProt Q14126) | inactive: -0.02 | inactive: 0.056 | inactive: -0.06 | inactive: 0.094 | inactive: -0.052 | inactive: -0.1 | inactive: 0.003 | inactive: -0.014 | inactive: 0.032 | inactive: 0.046 |
| DTWD1 (UniProt Q8N5C7) | inactive: -0.227 | inactive: -0.081 | inactive: 0.031 | inactive: -0.115 | inactive: -0.057 | inactive: 0.078 | inactive: 0.069 | inactive: 0.031 | inactive: 0.044 | inactive: 0.124 |
| DOK1 (UniProt Q99704) | inactive: -0.476 | inactive: -0.1 | inactive: -0.057 | inactive: -0.019 | inactive: -0.14 | inactive: -0.108 | inactive: 0.231 | inactive: -0.156 | inactive: 0.079 |  |
| DYNLL1 (UniProt P63167) | inactive: 0.04 | inactive: -0.006 | inactive: 0.091 | inactive: 0.067 | inactive: 0.071 | inactive: 0.007 | inactive: 0.014 | inactive: -0.024 | inactive: 0.002 | inactive: -0.113 |
| DNAJC10 (UniProt Q8IXB1) | inactive: 0.087 | inactive: 0.041 | inactive: 0.052 | inactive: 0.046 | inactive: -0.29 | inactive: -0.136 | inactive: -0.006 | inactive: -0.081 | inactive: 0.13 | inactive: -0.031 |
| DUS4L (UniProt O95620) | inactive: -0.025 | inactive: -0.112 | inactive: 0.053 | inactive: 0.002 | inactive: -0.017 | inactive: 0.007 | inactive: 0.06 | inactive: 0.047 | inactive: 0.026 | inactive: 0.011 |
| DSTN (UniProt P60981) | inactive: -0.006 | inactive: -0.037 | inactive: -0.011 | inactive: -0.018 | inactive: 0.053 | inactive: 0.015 | inactive: -0.002 | inactive: -0.057 | inactive: -0.016 | inactive: 0.042 |
| DPP8 (UniProt Q6V1X1) | inactive: -0.089 | inactive: 0.048 | inactive: 0.028 | inactive: -0.112 | inactive: -0.01 | inactive: 0.041 | inactive: 0.042 | inactive: 0.037 | inactive: -0.077 | inactive: 0.022 |
| DPY19L1, A0A1B0GW05 | inactive: 0.003 | inactive: 0.024 | inactive: -0.011 | inactive: -0.026 | inactive: -0.039 | inactive: -0.053 | inactive: 0.028 | inactive: -0.071 | inactive: 0.102 |  |
| DNAJC13 (UniProt O75165) | inactive: 0.066 | inactive: 0.039 | inactive: 0.072 | inactive: 0.029 | inactive: 0.122 | inactive: 0.008 | inactive: -0.05 | inactive: -0.208 | inactive: 0.05 | inactive: 0.014 |
| ECPAS (UniProt Q5VYK3) | inactive: 0.004 | inactive: -0.004 | inactive: 0.033 | inactive: -0.127 | inactive: -0.001 | inactive: 0.055 | inactive: -0.007 | inactive: -0.087 | inactive: -0.033 | inactive: 0.005 |
| DOHH (UniProt Q9BU89) | inactive: -0.4 | inactive: -0.151 | inactive: 0.022 | inactive: -0.038 | inactive: -0.062 | inactive: -0.041 | inactive: 0.201 | inactive: 0.084 | inactive: -0.006 | inactive: -0.171 |
| DSN1 (UniProt Q9H410) | inactive: 0.032 | inactive: 0.048 | inactive: 0.114 | inactive: -0.013 | inactive: 0.018 | inactive: -0.017 | inactive: 0.113 | inactive: -0.23 | inactive: -0.028 |  |
| DNASE2 (UniProt O00115) | inactive: -0.015 | inactive: 0.011 | inactive: -0.032 | inactive: 0.029 | inactive: -0.038 | inactive: -0.019 | inactive: 0.052 | inactive: 0.053 | inactive: -0.005 | inactive: 0.03 |
| DYNLRB1 (UniProt Q9NP97) | inactive: 0.009 | inactive: 0.031 | inactive: -0.018 | inactive: 0.008 | inactive: -0.042 | inactive: -0.032 | inactive: 0.04 | inactive: 0.045 | inactive: -0.009 | inactive: 0.021 |
| DPP3 (UniProt Q9NY33) | inactive: 0.015 | inactive: -0.118 | inactive: 0.053 | inactive: -0.08 | inactive: -0.016 | inactive: -0.003 | inactive: 0.004 | inactive: 0.049 | inactive: 0 | inactive: 0.01 |

| Target | log2 fold change [1] | log2 fold change (filanesib) | log2 fold change (zotarolimus) | log2 fold change (idasanutlin) | log2 fold change (alisertib) | log2 fold change [2] | log2 fold change (gefitinib) | log2 fold change [3] | log2 fold change (lapatinib) | log2 fold change (pictilisib) |
| --- | --- | --- | --- | --- | --- | --- | --- | --- | --- | --- |
| DPM3 isoform 2 (UniProt Q9P2X0) | inactive: -0.169 | inactive: -0.008 | inactive: -0.076 | inactive: 0.049 | inactive: -0.057 | inactive: -0.126 | inactive: 0.12 | inactive: 0.009 | inactive: 0.018 |  |
| DTYMK (UniProt P23919) | inactive: -0.043 | inactive: -0.09 | inactive: -0.023 | inactive: -0.065 | inactive: -0.014 | inactive: 0.047 | inactive: -0.108 | inactive: 0.152 | inactive: -0.026 | inactive: -0.054 |
| DNAJC19 (UniProt Q96DA6) | inactive: 0.096 | inactive: -0.155 | inactive: 0.016 | inactive: -0.004 | inactive: -0.022 | active: -0.205 | inactive: 0.006 | inactive: 0.045 | inactive: -0.012 | inactive: 0.025 |
| DNM2 (UniProt P50570) | inactive: -0.022 | inactive: -0.107 | inactive: 0.016 | inactive: -0.078 | inactive: -0.073 | inactive: 0.099 | inactive: 0.002 | inactive: 0.023 | inactive: -0.026 | inactive: 0.021 |
| ECI1 (UniProt P42126) | inactive: -0.094 | inactive: -0.024 | inactive: 0.019 | inactive: -0.028 | inactive: 0.001 | inactive: 0.014 | inactive: -0.006 | inactive: 0.061 | inactive: -0.031 | inactive: 0.032 |
| DPP9 isoform 2 (UniProt Q86TI2) | inactive: -0.013 | inactive: -0.053 | inactive: 0.001 | inactive: -0.083 | inactive: 0.002 | inactive: 0.081 | inactive: 0.018 | inactive: 0.034 | inactive: 0.039 | inactive: -0.002 |
| DUS2 (UniProt Q9NX74) | inactive: -0.02 | inactive: -0.014 | inactive: -0.041 | inactive: -0.004 | inactive: -0.075 | inactive: 0.059 | inactive: 0.04 | inactive: -0.11 | inactive: 0.043 | inactive: -0.128 |
| DYRK1A isoform 2 (UniProt Q13627) | inactive: -0.061 | inactive: 0.01 | inactive: 0.023 | inactive: 0 | inactive: -0.03 | inactive: 0.004 | inactive: 0.007 | inactive: 0.036 | inactive: -0.034 | inactive: 0.017 |
| ECHS1 (UniProt P30084) | inactive: 0.068 | inactive: -0.017 | inactive: 0.02 | inactive: -0.093 | inactive: -0.054 | inactive: -0.03 | inactive: 0.01 | inactive: -0.009 | inactive: 0.058 | inactive: -0.089 |
| DUSP12 (UniProt V9GYV5) | inactive: -0.063 | inactive: -0.115 |  |  |  |  |  |  |  |  |
| DUSP23 (UniProt Q9BVJ7) | inactive: -0.025 | inactive: 0.01 | inactive: 0.058 | inactive: 0.096 | inactive: -0.033 | inactive: -0.054 | inactive: 0.001 | inactive: 0.036 | inactive: 0.022 | inactive: 0.048 |
| DUSP12 (UniProt Q9UNI6) | inactive: 0.068 | inactive: -0.05 | inactive: 0.043 | inactive: -0.036 | inactive: -0.033 | inactive: -0.07 | inactive: 0.067 | inactive: 0.042 | inactive: 0.013 | inactive: 0.191 |
| DNM1L isoform 2 (UniProt O00429) | inactive: -0.035 | inactive: -0.07 | inactive: -0.066 | inactive: -0.078 | inactive: -0.115 | inactive: -0.073 | inactive: 0.092 | inactive: 0.085 | inactive: -0.142 | inactive: -0.221 |
| DPF2 (UniProt Q92785) | inactive: 0.049 | inactive: 0.071 | inactive: -0.01 | inactive: 0.052 | inactive: -0.093 | inactive: -0.052 | inactive: -0.025 | inactive: 0.001 | inactive: 0.017 | inactive: -0.074 |
| EBP (UniProt Q15125) | inactive: -0.068 | inactive: -0.079 | inactive: -0.053 | inactive: 0.048 | inactive: 0.047 | inactive: -0.01 | inactive: -0.016 | inactive: 0.047 | inactive: -0.111 | inactive: 0.049 |

Single records, as listed above. Values in the order: log2 fold change [1] | log2 fold change (filanesib) | log2 fold change (zotarolimus) | log2 fold change (idasanutlin) | log2 fold change (alisertib) | log2 fold change [2] | log2 fold change (gefitinib) | log2 fold change [3] | log2 fold change (lapatinib) | log2 fold change (pictilisib)
EBP (UniProt Q15125) is listed as inactive: -0.068 | inactive: -0.079 | inactive: -0.053 | inactive: 0.048 | inactive: 0.047 | inactive: -0.01 | inactive: -0.016 | inactive: 0.047 | inactive: -0.111 | inactive: 0.049
DNM2 (UniProt P50570) is listed as inactive: -0.022 | inactive: -0.107 | inactive: 0.016 | inactive: -0.078 | inactive: -0.073 | inactive: 0.099 | inactive: 0.002 | inactive: 0.023 | inactive: -0.026 | inactive: 0.021
